Assay results: PubChem BioAssay AID248 (DTP/NCI, 2004)
The list is a part of this screen's results and no random one: it gathers tests that were run many times, whatever their T/C, doses with no T/C, and many T/C values between a quarter and a half above the control. Other doses and runs of a compound stand elsewhere. T/C: endpoint of the treated group in % of that of the vehicle group. Some entries give survivors of the animals treated and no T/C: the source files T/C as zero there, which appears to mark a toxic dose or a test without result, not a measured value. Some survivor counts are full or nearly so, which does not show that the dose was tolerated: the source hardly ever lists a survival T/C far under the control, and the zero likely stands for such cases as well. Counts of survivors are from the toxicity check (mostly the fifth day) where no day follows; animals may have died later. Schedules are NCI's codes, taken here to give the interval after Q, in days (D) or hours (H), and the number of doses after X. Some schedule codes hold Z or #, which are not explained here. Some doses were run more than once; their values stand side by side, smallest first. Where survival is the endpoint, this PubChem deposit counts one and a half times the control or more as active, and values a quarter to a half above the control carry no call in these data; other NCI protocols may use other cut-offs.

Test system: L1210 leukemia ip in BDF1 mice, survival T/C
Assay: NCI In Vivo Anticancer Drug Screen. Data for tumor model L1210 Leukemia (intraperitoneal) in B6D2F1 (BDF1) mice
Conditions: higher T/C = longer survival
[1] = T/C endpoint: mean survival time, dose: 400.0 mg/kg/injection, schedule: Q04DX003 (ip), vehicle: saline
[2] = T/C endpoint: mean survival time, dose: 400.0 mg/kg/injection, schedule: Q04DX003 (ip), vehicle: saline with Tween-80

Question: `N/C(=N/N=C/c1cc(Cl)ccc1O)N/N=C\c1cc(Cl)ccc1O` was tested. Which survivor count (T/C endpoint: mean survival time, dose: 480.0 mg/kg/injection, schedule: Q01DX Z (oral), vehicle: methylcellulose (MC)) did it give?
Answer: 3 of 6

Question: `COC1OC2COc3ccccc3OC2C2C1N2C(=N)N[N+](=O)[O-]` (configuration not stated) was tested. Which T/C (T/C endpoint: mean survival time, dose: 80.0 mg/kg/injection, schedule: Q04DX002 (ip), vehicle: saline) did it give?
Answer: 125 % of control

Question: For `CC(CN(C)C)CN1c2ccccc2Sc2ccc(C(F)(F)F)cc21` (configuration not stated), which survivor count (T/C endpoint: mean survival time, dose: 25.0 mg/kg/injection, schedule: Q01DX009 (ip), vehicle: saline) is on record?
Answer: 3 of 6

Question: What about the survivor count (T/C endpoint: mean survival time, dose: 50.0 mg/kg/injection, schedule: Q04DX003 (ip), vehicle: saline) of the same compound?
Answer: 1 of 4

Question: What about the survivor count (T/C endpoint: mean survival time, dose: 100.0 mg/kg/injection, schedule: Q04DX003 (ip), vehicle: saline) of the same compound?
Answer: 0 of 4

Question: What about the survivor count (T/C endpoint: mean survival time, dose: 200.0 mg/kg/injection, schedule: Q04DX003 (ip), vehicle: saline) of the same compound?
Answer: 0 of 4

Question: What about the survivor count [1] of the same compound?
Answer: 0 of 4

Question: What does the source list for `CCCOC(C[N+](=O)[O-])C(Cl)(Cl)Cl` (configuration not stated)?
Answer: survivor count (T/C endpoint: mean survival time, dose: 50.0 mg/kg/injection, schedule: Q04DX003 (ip), vehicle: saline with Tween-80): 3 of 6; survivor count (T/C endpoint: mean survival time, dose: 100.0 mg/kg/injection, schedule: Q04DX003 (ip), vehicle: saline with Tween-80): 0 of 6 and 1 of 6; survivor count (T/C endpoint: mean survival time, dose: 200.0 mg/kg/injection, schedule: Q04DX003 (ip), vehicle: saline with Tween-80): 0 of 6; survivor count [2]: 0 of 6

Question: For `Cn1cnc([N+](=O)[O-])c1[Se]c1nc(N)nc2nc[nH]c12`, which T/C (T/C endpoint: mean survival time, dose: 12.5 mg/kg/injection, schedule: Q01DX005 (ip), vehicle: other) is on record?
Answer: 136 % of control

Question: What about the survivor count (T/C endpoint: mean survival time, dose: 100.0 mg/kg/injection, schedule: Q01DX005 (ip), vehicle: other) of the same compound?
Answer: 0 of 6

Question: And the survivor count (T/C endpoint: mean survival time, dose: 200.0 mg/kg/injection, schedule: Q01DX005 (ip), vehicle: other)?
Answer: 0 of 6

Question: How did the T/C (T/C endpoint: median survival time, dose: 23.0 mg/kg/injection, schedule: Q01DX009 (ip), vehicle: steroid suspending solution) turn out when `CN(C)N=Nc1ccc(C(N)=O)cc1` was run?
Answer: 135 % of control

Question: And the T/C (T/C endpoint: median survival time, dose: 39.0 mg/kg/injection, schedule: Q01DX009 (ip), vehicle: steroid suspending solution)?
Answer: 140 % of control

Question: What about the T/C (T/C endpoint: median survival time, dose: 65.0 mg/kg/injection, schedule: Q04DX003 (ip), vehicle: steroid suspending solution) of the same compound?
Answer: 130 % of control

Question: What about the survivor count (T/C endpoint: median survival time, dose: 108.0 mg/kg/injection, schedule: Q01DX009 (ip), vehicle: steroid suspending solution) of the same compound?
Answer: 8 of 8

Question: What about the T/C (T/C endpoint: median survival time, dose: 108.0 mg/kg/injection, schedule: Q04DX003 (ip), vehicle: steroid suspending solution) of the same compound?
Answer: 140 % of control

Question: And the T/C (T/C endpoint: median survival time, dose: 180.0 mg/kg/injection, schedule: Q01DX001 (ip), vehicle: steroid suspending solution)?
Answer: 125 % of control

Question: And the survivor count (T/C endpoint: median survival time, dose: 500.0 mg/kg/injection, schedule: Q01DX001 (ip), vehicle: steroid suspending solution)?
Answer: 0 of 8

Question: For `O=C1C(Cl)=C(Cl)C(=O)N1c1ccc(Cl)c(Cl)c1`, which survivor count (T/C endpoint: mean survival time, dose: 400.0 mg/kg/injection, schedule: Q01DX009 (ip), vehicle: saline with Tween-80) is on record?
Answer: 1 of 6

Question: What does the source list for `O=C(Nc1cccc(C2=NCCN2)c1)c1ccc2cc(C(=O)Nc3cccc(C4=NCCN4)c3)ccc2c1`?
Answer: T/C (T/C endpoint: mean survival time, dose: 60.0 mg/kg/injection, schedule: Q01DX Z (ip), vehicle: carboxymethylcellulose (CMC)): 137 % of control; survivor count (T/C endpoint: mean survival time, dose: 125.0 mg/kg/injection, schedule: Q01DX Z (ip), vehicle: water): 0 of 6; survivor count (T/C endpoint: mean survival time, dose: 250.0 mg/kg/injection, schedule: Q01DX Z (ip), vehicle: water): 0 of 6; survivor count (T/C endpoint: mean survival time, dose: 500.0 mg/kg/injection, schedule: Q01DX Z (ip), vehicle: water): 0 of 6

Question: With `O=[N+]([O-])c1cc(/C=N\N=C\c2ccco2)ccc1Cl` as the compound, how does the survivor count (T/C endpoint: mean survival time, dose: 75.0 mg/kg/injection, schedule: Q01DX001 (ip), vehicle: saline) read?
Answer: 6 of 6

Question: What about the survivor count (T/C endpoint: mean survival time, dose: 150.0 mg/kg/injection, schedule: Q01DX001 (ip), vehicle: saline) of the same compound?
Answer: 6 of 6

Question: What about the survivor count (T/C endpoint: mean survival time, dose: 300.0 mg/kg/injection, schedule: Q01DX001 (ip), vehicle: saline) of the same compound?
Answer: 6 of 6

Question: How did the survivor count (T/C endpoint: mean survival time, dose: 200.0 mg/kg/injection, schedule: Q01DX009 (ip), vehicle: saline) turn out when `CC(C)(C)CC(C)(C)c1ccc(OCCO)cc1` was run?
Answer: 1 of 6

Question: What about the survivor count [1] of the same compound?
Answer: 0 of 6

Question: What does the source list for `C[N+](C)(C)CC(O)COc1ccc(Cl)cc1Cl` (configuration not stated)?
Answer: survivor count (T/C endpoint: mean survival time, dose: 200.0 mg/kg/injection, schedule: Q04DX002 (ip), vehicle: Klucel (hydroxypropylcellulose) (HPC)): 0 of 3; survivor count (T/C endpoint: mean survival time, dose: 400.0 mg/kg/injection, schedule: Q04DX002 (ip), vehicle: Klucel (hydroxypropylcellulose) (HPC)): 0 of 3

Question: Which survivor count (T/C endpoint: mean survival time, dose: 480.0 mg/kg/injection, schedule: Q01DX Z (ip), vehicle: carboxymethylcellulose (CMC)) does the source give for `NC(N)=N/N=C(/C=C/c1ccccc1)c1ccc(Cl)cc1` here?
Answer: 6 of 6

Question: What does the source list for `CN(C)c1ccc(NC(=S)Nc2ccc(N(C)C)cc2)cc1`?
Answer: survivor count (T/C endpoint: mean survival time, dose: 100.0 mg/kg/injection, schedule: Q01DX001 (ip), vehicle: saline with Tween-80): 3 of 3; survivor count (T/C endpoint: mean survival time, dose: 200.0 mg/kg/injection, schedule: Q01DX001 (ip), vehicle: saline with Tween-80): 3 of 3

Question: `OC(CC1=NNC(=S)NC1)(C(F)(F)F)C(F)(F)F` was tested. Which survivor count [2] did it give?
Answer: 1 of 6
